Measurements reported in PubChem BioAssay AID686938 (Drosophila RNAi Screening Center, 2013).
The deposit covers about 23,000 reagents; below is an unselected part of those that have a named target and a result. Of all reagents, 75 (0.33%) were called active. 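Raw plate signals without normalisation; calls rest on plate z-scores that were not deposited; ratio present for only 364 wells.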 Reagents against one gene are numbered here. No sequences are given here. Not stated in the record: the dose of the treatment.

Aim: 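Fly genes required for calcium entry once internal stores are emptied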 (primary screen)
Cell system: Drosophila S2R+ cells
Reagent: long dsRNA against Drosophila genes, about 0.25 µg dsRNA per well, roughly 10,000 cells
Timing: 5 days of knock-down before the calcium assay
Conditions: thapsigargin (SERCA pump blocker) to empty calcium stores; entry signal taken 4 min after adding it
Measured: 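Duplicate raw fluo-4 intensities per well from a plate reader, at rest and four minutes after thapsigargin emptied calcium stores; entry-to-rest ratio filled for only some wells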
Direction: calcium entry signal: higher = stronger calcium signal after store depletion; entry to resting ratio: higher = more calcium entry relative to resting level; resting calcium signal: higher = higher resting calcium signal
Units: calcium entry signal in fluorescence units; resting calcium signal in fluorescence units
Rule for the call: 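Called when the plate z-score of the entry-to-rest ratio, mean of duplicates, falls below −3; wells with low overall dye signal (Fmax z below −2) or more than five off-targets excluded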
Meaning of the calls: active = strongly reduced calcium entry; inactive = no strong reduction

acs (GeneID 38264) gave calcium entry signal, replicate 1 = 2.23e7; calcium entry signal, replicate 2 = 2.63e7; resting calcium signal, replicate 1 = 1.15e7; resting calcium signal, replicate 2 = 1.31e7; inactive.
For Nap1 (GeneID 37798), the values are calcium entry signal, replicate 1 = 3.13e7; resting calcium signal, replicate 1 = 1.53e7; inactive.
Depletion of CG17477 (GeneID 42067) gave: calcium entry signal, replicate 1 = 3.68e7; calcium entry signal, replicate 2 = 4.10e7; resting calcium signal, replicate 1 = 1.70e7; resting calcium signal, replicate 2 = 6.20e7; inactive.
For CG13589 (GeneID 37906), the entry reads calcium entry signal, replicate 1 = 4.06e7; calcium entry signal, replicate 2 = 5.38e7; resting calcium signal, replicate 1 = 2.08e7; resting calcium signal, replicate 2 = 2.11e7; inactive.
For CG34265 (GeneID 5740186), the values are calcium entry signal, replicate 1 = 2.28e7; calcium entry signal, replicate 2 = 3.09e7; resting calcium signal, replicate 1 = 1.11e7; resting calcium signal, replicate 2 = 1.31e7; inactive.
For CG33178 (GeneID 318913), the entry reads calcium entry signal, replicate 1 = 4.26e7; calcium entry signal, replicate 2 = 3.32e7; resting calcium signal, replicate 1 = 2.09e7; resting calcium signal, replicate 2 = 1.39e7; inactive.
With knock-down of vir-1 (GeneID 34652) #1 the results were calcium entry signal, replicate 1 = 4.83e7; calcium entry signal, replicate 2 = 2.73e7; resting calcium signal, replicate 1 = 1.99e7; resting calcium signal, replicate 2 = 1.29e7; inactive.
For vir-1 (GeneID 34652) #2 the deposit lists calcium entry signal, replicate 1 = 4.54e7; calcium entry signal, replicate 2 = 2.91e7; resting calcium signal, replicate 1 = 1.95e7; resting calcium signal, replicate 2 = 1.44e7; inactive.
Knock-down of Polr2K (GeneID 5740790) gave: calcium entry signal, replicate 1 = 3.13e7; calcium entry signal, replicate 2 = 1.91e7; resting calcium signal, replicate 1 = 1.44e7; resting calcium signal, replicate 2 = 1.01e7; inactive.
Against wcd (GeneID 36831) the deposit lists calcium entry signal, replicate 1 = 2.83e7; calcium entry signal, replicate 2 = 2.88e7; resting calcium signal, replicate 1 = 1.52e7; resting calcium signal, replicate 2 = 1.68e7; inactive.
For CR43359 (GeneID 12798534), the entry reads calcium entry signal, replicate 1 = 3.41e7; calcium entry signal, replicate 2 = 5.13e7; resting calcium signal, replicate 1 = 1.75e7; resting calcium signal, replicate 2 = 1.91e7; inactive.
Knock-down of Tsp42El (GeneID 35622) came out at: calcium entry signal, replicate 1 = 3.77e7; resting calcium signal, replicate 1 = 1.88e7; inactive.
Oli (GeneID 35066) scored calcium entry signal, replicate 1 = 4.74e7; resting calcium signal, replicate 1 = 2.09e7; inactive.
CG9903 (GeneID 32621) showed calcium entry signal, replicate 1 = 3.33e7; calcium entry signal, replicate 2 = 2.68e7; resting calcium signal, replicate 1 = 1.60e7; resting calcium signal, replicate 2 = 1.19e7; inactive.
With knock-down of E(spl)malpha-BFM (GeneID 43153), the record shows calcium entry signal, replicate 1 = 2.97e7; calcium entry signal, replicate 2 = 5.58e7; resting calcium signal, replicate 1 = 1.83e7; resting calcium signal, replicate 2 = 2.30e7; inactive.
CG34007 (GeneID 3885610) showed calcium entry signal, replicate 1 = 3.17e7; calcium entry signal, replicate 2 = 5.78e7; resting calcium signal, replicate 1 = 1.43e7; resting calcium signal, replicate 2 = 2.25e7; inactive.
With knock-down of Pen (GeneID 34338), the record shows calcium entry signal, replicate 1 = 4.66e7; resting calcium signal, replicate 1 = 2.23e7; inactive.
CG30325 (GeneID 246541) showed calcium entry signal, replicate 1 = 3.81e7; calcium entry signal, replicate 2 = 3.58e7; resting calcium signal, replicate 1 = 1.74e7; resting calcium signal, replicate 2 = 1.80e7; inactive.

Targets above whose target name starts with V or v (2):
vir-1 (GeneID 34652) #1 | calcium entry signal, replicate 1 = 4.83e7; calcium entry signal, replicate 2 = 2.73e7; resting calcium signal, replicate 1 = 1.99e7; resting calcium signal, replicate 2 = 1.29e7; Outcome = inactive
vir-1 (GeneID 34652) #2 | calcium entry signal, replicate 1 = 4.54e7; calcium entry signal, replicate 2 = 2.91e7; resting calcium signal, replicate 1 = 1.95e7; resting calcium signal, replicate 2 = 1.44e7; Outcome = inactive

Additional entries:
With knock-down of CG11381 (GeneID 31067), the screen gave calcium entry signal, replicate 1 = 4.91e7; calcium entry signal, replicate 2 = 8.32e7; entry to resting ratio 2; resting calcium signal, replicate 1 = 2.52e7; resting calcium signal, replicate 2 = 3.52e7; inactive.
For Ptp52F (GeneID 36790), the entry reads calcium entry signal, replicate 1 = 3.96e7; calcium entry signal, replicate 2 = 3.85e7; resting calcium signal, replicate 1 = 1.81e7; resting calcium signal, replicate 2 = 1.90e7; inactive.
Depletion of trc (GeneID 40165) resulted in: calcium entry signal, replicate 1 = 3.47e7; calcium entry signal, replicate 2 = 5.26e7; resting calcium signal, replicate 1 = 1.59e7; resting calcium signal, replicate 2 = 2.18e7; inactive.
CG11458 (GeneID 50110) showed calcium entry signal, replicate 1 = 3.49e7; calcium entry signal, replicate 2 = 4.93e7; resting calcium signal, replicate 1 = 1.69e7; resting calcium signal, replicate 2 = 2.16e7; inactive.
For CG9029 (GeneID 33815), the values are calcium entry signal, replicate 1 = 3.84e7; calcium entry signal, replicate 2 = 3.32e7; resting calcium signal, replicate 1 = 1.82e7; resting calcium signal, replicate 2 = 1.68e7; inactive.
Against CG32219 (GeneID 317922) the deposit lists calcium entry signal, replicate 1 = 3.65e7; calcium entry signal, replicate 2 = 3.36e7; resting calcium signal, replicate 1 = 1.69e7; resting calcium signal, replicate 2 = 1.55e7; inactive.
Socs36E (GeneID 35085) scored calcium entry signal, replicate 1 = 4.29e7; calcium entry signal, replicate 2 = 3.77e7; resting calcium signal, replicate 1 = 2.07e7; resting calcium signal, replicate 2 = 1.49e7; inactive.
Ino80 (GeneID 42314) #1 scored calcium entry signal, replicate 1 = 3.34e7; calcium entry signal, replicate 2 = 4.08e7; resting calcium signal, replicate 1 = 4.93e7; resting calcium signal, replicate 2 = 1.96e7; inactive.
Depletion of Ino80 (GeneID 42314) #2 gave: calcium entry signal, replicate 1 = 3.33e7; calcium entry signal, replicate 2 = 4.07e7; resting calcium signal, replicate 1 = 3.80e7; resting calcium signal, replicate 2 = 1.82e7; inactive.
For Ino80 (GeneID 42314) #3 the deposit lists calcium entry signal, replicate 1 = 3.85e7; calcium entry signal, replicate 2 = 3.97e7; resting calcium signal, replicate 1 = 5.23e7; resting calcium signal, replicate 2 = 1.91e7; inactive.
